This passage reports AC50 results from PubChem BioAssay AID1487 (National Center for Advancing Translational Sciences (NCATS), 2009).

A short description of the test: qHTS Assay for Modulators of Lamin A Splicing. The note with it: HeLa LMNA splicing GFP/RFP minigene ratio, 48 h. Put shortly:
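S3 HeLa cells stably expressing lamin A-EGFP splicing minigene plus DsRed2, 600 cells/well, 48 h compound exposure at 37C. Laser-scanning cytometry; analysed as GFP (500-530 nm)/RFP (575-640 nm) total intensity ratio; 0.5% DMSO vehicle.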

[1] abbreviates: measured here: GFP splicing reporter channel.
[2] abbreviates: measured here: RFP viability control channel.

The other results are listed elsewhere or left out. The main result of the screen is listed elsewhere. These columns were measured beside it and carry no call. Compounds called inactive in the main read-out are mostly missing here. Words in brackets tell the shape of the fitted curve; partial curves, single points and poor fits give uncertain potencies.

For `Cc1c(C(=O)N(C)C)sc2c1c(=O)n(-c1ccccc1C(F)(F)F)c(=O)n2Cc1cccc(F)c1`, the AC50 was 2 µM [rising, partial curve] under setting [1] and 0.0251 µM [rising, full curve, poor fit] under setting [2].
With `COc1cc(S(=O)(=O)N2CCN(c3ccccc3)CC2)ccc1F`, the AC50 is 0.0251 µM [falling, full curve, poor fit] under setting [1] and 0.0708 µM [falling, full curve] under setting [2].
On to `Nc1c(C(=O)c2ccccc2)sc(Nc2ccc(Cl)c(Cl)c2)c1C(=O)Nc1ccccc1`, for which the AC50 under setting [1] was 3.16 µM [falling, single point].
With `COc1ccc(OCCNC(=O)c2ccccc2OCC(=O)Nc2ccc(NC(C)=O)cc2)cc1`, the AC50 was 0.112 µM [falling, full curve, poor fit] under setting [1] and 0.126 µM [falling, partial curve, poor fit] under setting [2].
Consider `COc1ccc(OCc2cccc(C(=O)N3CCCC3)c2)cc1`, for which, under setting [2], the AC50 was 35.5 µM [rising, single point].
Consider `Cc1ccc(-n2nnnc2SC(C)C(=O)Nc2ccccc2-c2ccccc2)cc1` (stereo not drawn), for which the AC50 under setting [2] was 35.5 µM [rising, single point].
Take `COC1=C(OC)C(=O)c2ccccc2C1=O`: the AC50 under setting [1] was 12.6 µM [falling, partial curve, poor fit] and the AC50 under setting [2] is 12.6 µM [falling, partial curve, poor fit].
Consider `CCCC1(c2ccccc2)NC(=O)N(CC(=O)Nc2cc(C)on2)C1=O` (stereo not drawn), for which the AC50 under setting [2] was 11.2 µM [rising, partial curve, poor fit].
`NS(=O)(=O)c1cccnc1Nc1c(Cl)cccc1Cl`: the AC50 was 31.6 µM [falling, single point] under setting [1] and 35.5 µM [falling, single point] under setting [2].
As to `Cc1ccc(-n2c(SCC(=O)Nc3ccc4c(c3)OCCO4)nnc2-c2ccco2)cc1`, the AC50 under setting [1] was 3.98 µM [rising, full curve, poor fit].
On to `O=C(C1CC2CCC1C2)N1CCN(Cc2ccc3c(c2)OCO3)CC1` (stereo not drawn), for which the AC50 under setting [2] is 4.47 µM [rising, partial curve, poor fit].
On the same count and under the same terms, as for `COC(=O)c1[nH]c2c(c1C)C(=O)CC(c1ccccc1)C2` (stereo not drawn), the figure is 1.26 µM [rising, full curve].
Regarding `CCCCn1c(SCC(=O)N2CCN(c3ccccc3)CC2)nc2ccsc2c1=O`, the AC50 was 8.91 µM [rising, partial curve] under setting [1] and 14.1 µM [rising, single point] under setting [2].
Turning to `O=C1CSC(=S)N1Cc1cccnc1`, the AC50 under setting [2] is 2.82 µM [rising, partial curve, poor fit].
Same read-out and setting: to `Cc1ccc(/C(C#N)=C\c2cn(C)c3ccccc23)cc1` belongs 31.6 µM [rising, single point]; to `COc1cc(C2C(C#N)=C(N)Oc3c2c(-c2ccccc2)nn3-c2ccccc2)cc(OC)c1OC` (stereo not drawn), 15.8 µM [rising, single point].
The same measure, in the same setting: to `CC(C)(C)NC(=O)CSc1nsc(SCC(=O)NC(C)(C)C)c1C#N` belongs 22.4 µM [rising, partial curve].
On to `Cc1cccc(OCCCn2c(CCNC(=O)C(C)C)nc3ccccc32)c1`, for which the AC50 by setting is: under setting [1], 20 µM [rising, single point]; under setting [2], 35.5 µM [rising, single point].
In the case of `Cc1ccc(C(=O)N2CCN(c3ccccc3)CC2)cc1S(=O)(=O)N1CCCC1`, the AC50 was 6.31 µM [rising, partial curve] under setting [1] and 14.1 µM [rising, partial curve] under setting [2].
Consider `CC(C)(C)c1ccccc1NC(=O)c1c(O)c2cccc3c2n(c1=O)CC3`, for which the AC50 runs as follows: under setting [1], 35.5 µM [rising, single point]; under setting [2], 35.5 µM [rising, single point].
In the case of `Cc1ccc(-c2cc(C(F)F)nc(N3CCOCC3)n2)cc1`, the AC50 under setting [2] is 3.98 µM [falling, partial curve].
Take `CCCCc1ccc(NC(=S)NCCc2ccc(S(N)(=O)=O)cc2)cc1`: the AC50 under setting [2] is 1.58 µM [falling, partial curve, poor fit].
On to `CCCCc1nn2c(=O)cc(COC(=O)c3ccccc3NC(=O)c3cccc(C)c3)nc2s1`, for which the AC50 is, setting by setting: under setting [1], 6.31 µM [rising, partial curve, poor fit]; under setting [2], 3.55 µM [rising, full curve, poor fit].
On to `COc1ccccc1NC(=O)CCSc1nnc(-c2ccco2)o1`, for which the AC50 under setting [1] is 12.6 µM [falling, partial curve].
On the same count and under the same terms, as for `Cc1ccc(Cl)cc1NS(=O)(=O)c1ccc(N2CCCCS2(=O)=O)cc1`, the figure is 14.1 µM [falling, single point]; as for `CC1(OC(=O)CCc2ccccc2)C(=O)C=C2C=C(c3ccc(C#N)cc3)N(C3CC3)C=C2C1=O` (stereo not drawn), 0.00631 µM [falling, full curve]; as for `O=C(Nc1cccc(Cl)c1N1CCCCC1)c1ccc2c(c1)OCCO2`, 35.5 µM [rising, single point].
Same read-out and setting: as for `O=C(Oc1ccc2ccccc2c1Br)N1CCCCCC1`, the figure is 2.82 µM [falling, single point].
For `Fc1ccc(CNC(=S)Nc2cccc(C(F)(F)F)c2)cc1`, under setting [2], the AC50 was 31.6 µM [rising, single point].
For `CCCCC1=CC2=C(c3ccco3)C(=O)C(C)(OC(=O)c3ccc(OC)cc3)C(=O)C2=CN1C1CC1` (stereo not drawn), the AC50 by setting is: under setting [1], 0.0708 µM [rising, full curve]; under setting [2], 0.126 µM [rising, full curve].
Consider `CCOc1ccc(OCCN2C(=O)NC3(CCCc4ccccc43)C2=O)cc1` (stereo not drawn), for which the AC50 under setting [2] is 11.2 µM [rising, single point].
The same measure, in the same setting: as for `CCc1nc(NCc2ccccn2)c2oc3ccccc3c2n1`, the figure is 14.1 µM [rising, partial curve].
For `Cc1nnc(Sc2nc3ccccc3o2)c2ccccc12`, the AC50 is, setting by setting: under setting [1], 22.4 µM [falling, single point]; under setting [2], 35.5 µM [falling, single point].
`C/C(N)=C(/C#N)C(=O)COC(=O)C1CCN(C(=O)c2ccc(Cl)cc2)CC1`: the AC50 under setting [1] was 2 µM [falling, partial curve, poor fit].
For the compound `CCC1CCCCN1C(=O)c1cc(-c2ccc(Cl)c(Cl)c2)on1` (stereo not drawn), the AC50 under setting [2] is 35.5 µM [rising, single point].
On to `COc1cccc(Nc2c3c(nc4c(-c5ccccc5)c(C)nn24)CCC3)c1`, for which the AC50 reads like this: under setting [1], 12.6 µM [rising, partial curve]; under setting [2], 22.4 µM [rising, partial curve].
Consider `CC(=O)Nc1ccc2nc(NC(=O)COc3cccc(C)c3)sc2c1`, for which the AC50 under setting [2] is 0.00891 µM [falling, full curve, poor fit].
For the compound `CCOc1ccccc1Nc1nc(-c2sc(NC(=O)c3cccc(Cl)c3)nc2C)cs1`, the AC50 reads like this: under setting [1], 10 µM [falling, partial curve]; under setting [2], 11.2 µM [falling, partial curve].
For `O=C(c1cc(-c2ccncc2)nc2ccccc12)N1CCN(c2ccccn2)CC1`, the AC50 under setting [2] is 10 µM [rising, partial curve].
The same measure, in the same setting: to `COc1ccc(NC(=O)Nc2cccc([N+](=O)[O-])c2)cc1Cl` belongs 14.1 µM [rising, partial curve].
On to `Cc1cc(C)cc(NC(=O)c2cnc3sc(N4CCCC4)nn3c2=O)c1`, for which, under setting [1], the AC50 is 25.1 µM [falling, single point].
For `COc1cc(-c2nc3ccc4ccccc4c3c3c2CCC3)cc(OC)c1O`, the AC50 by setting is: under setting [1], 15.8 µM [rising, single point]; under setting [2], 14.1 µM [rising, partial curve, poor fit].
Consider `Cc1ccc(NC(=O)CSc2n[nH]c(=O)n2C2CC2)cc1S(=O)(=O)N1CCOCC1`, for which, under setting [2], the AC50 was 11.2 µM [rising, partial curve, poor fit].
Same read-out and setting: as for `Cc1ccccc1-n1nnnc1SC1CCOC1=O` (stereo not drawn), the figure is 0.00316 µM [falling, full curve, poor fit].
For `N#Cc1ccc(-c2ccco2)nc1SCC(=O)c1ccc(Cl)cc1`, the AC50 under setting [1] is 1 µM [rising, full curve, poor fit].
Turning to `COc1ccc(C)cc1NC(=O)N1CC(C)Sc2ccccc21` (stereo not drawn), under setting [2], the AC50 was 0.1 µM [falling, single point].
`Clc1ccc(Cn2ncc3c(NCc4cccnc4)ncnc32)cc1`: the AC50 under setting [1] is 17.8 µM [rising, partial curve, poor fit] and the AC50 under setting [2] was 14.1 µM [rising, partial curve].
`CN(C)c1ccc(/C=C2/SC(=O)N(CCN=C3NS(=O)(=O)c4ccccc43)C2=O)cc1`: under setting [1], the AC50 was 6.31 µM [falling, partial curve, poor fit].
Consider `Cc1cc(/C=N/NC(N)=S)c(C)n1-c1ccc(Br)cc1`, for which the AC50 under setting [1] is 31.6 µM [rising, single point].
For the compound `COC(=O)c1c(NC(=O)CN2CCC3(O)CCCCC3C2c2ccccc2OC)sc(C)c1C` (stereo not drawn), the AC50 under setting [1] was 14.1 µM [rising, single point] and the AC50 under setting [2] was 22.4 µM [rising, single point].
On to `CCC1CCCCN1S(=O)(=O)c1cc(C(=O)Nc2ccc(C)c(F)c2)ccc1F` (stereo not drawn), for which the AC50 under setting [1] is 1.58 µM [falling, full curve, poor fit].
Regarding `CCCCCCCCC(=O)N/N=C/c1cccc(Br)c1`, the AC50 under setting [2] was 35.5 µM [falling, single point].
Consider `CC[C@]1(O)C[C@@H]2CN(CCc3c([nH]c4ccccc34)[C@@](C(=O)OC)(c3cc4c(cc3OC)N(C)[C@H]3[C@@](O)(C(=O)OC)[C@H](OC(C)=O)[C@]5(CC)C=CCN6CC[C@]43[C@@H]65)C2)C1`, for which the AC50 is, setting by setting: under setting [1], 0.2 µM [falling, partial curve, poor fit]; under setting [2], 2.82 µM [falling, full curve, poor fit].
On to `O=C(O)c1cccc2c1C(=O)c1ccccc1-2`, for which the AC50 under setting [2] is 0.00316 µM [falling, full curve, poor fit].
Still for that read-out and setting: as for `COCCn1c(C)cc(C(=O)COc2nc3ccccc3nc2C)c1C`, the figure is 10 µM [rising, partial curve].
